No constants are given. Whether binding was seen depends on the method and setting. Binding can be weak; no strength is given. For some of these results: Where a sequence is shown, tags or fusion partners need not be part of it. For some of these results: In cells and extracts the contact can be indirect. Each block holds one molecule with its values, some of them ahead of it.
Columns and labels:
[1] = target: T1, Flag-tagged HSD17B10 (17-beta-hydroxysteroid dehydrogenase 10), wild type (human) (UniProt Q99714); assay: co-IP; tagged proteins co-transfected into HEK293T cells; lysis in BC100 buffer (100 mM NaCl, 20 mM pH7.3 Tris, 20% glycerol, 0.2% NP-40); immunoprecipitation with anti-Flag M2 beads at 4 °C overnight; western blot
T1 sequence: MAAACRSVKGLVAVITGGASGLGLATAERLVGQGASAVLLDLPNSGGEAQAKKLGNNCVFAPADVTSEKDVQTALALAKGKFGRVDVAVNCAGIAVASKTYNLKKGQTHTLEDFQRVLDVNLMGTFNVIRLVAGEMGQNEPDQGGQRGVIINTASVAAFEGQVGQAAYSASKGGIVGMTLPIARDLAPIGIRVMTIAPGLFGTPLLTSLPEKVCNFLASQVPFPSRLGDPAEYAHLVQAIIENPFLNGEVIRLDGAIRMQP

GST-HSD17B10 (human) = target: T2, GST-HSD17B10 (human) (UniProt Q99714); assay: pull-down; GST fusion proteins bound to GST-agarose beads, incubated with Flag-tagged proteins purified from HEK293T in buffer BC200 at 4 °C overnight; washed with BC100; western blot; both purified
T2 sequence: T1 sequence

[2] = target: T3, Endogenous HSD17B10 (HCT116 cells) (human (endogenous in HCT116)) (UniProt Q99714); assay: co-IP; endogenous proteins of HCT116 cells; lysates incubated with 1 μg anti-SIRT3 or anti-HSD17B10 (rabbit or mouse IgG as control) at 4 °C overnight, Protein A/G agarose beads; western blot
T3 sequence: T1 sequence

[3] = target: T4, Flag-tagged HSD17B10 expressed in HCT116 cells (human) (UniProt Q99714); assay: co-IP; Flag-tagged HSD17B10 transfected into HCT116 cells; cells treated with H2O2, EBSS or serum starvation for the indicated time; immunoprecipitation with M2 beads
T4 sequence: T1 sequence

Flag-tagged SIRT3 = assay: co-IP; tagged proteins co-transfected into HEK293T cells; lysis in BC100 buffer (100 mM NaCl, 20 mM pH7.3 Tris, 20% glycerol, 0.2% NP-40); immunoprecipitation with anti-Flag M2 beads at 4 °C overnight; western blot
[4] = target: Endogenous SIRT3 (HCT116 cells) (human (endogenous in HCT116)); assay: co-IP; endogenous proteins of HCT116 cells; lysates incubated with 1 μg anti-SIRT3 or anti-HSD17B10 (rabbit or mouse IgG as control) at 4 °C overnight, Protein A/G agarose beads; western blot
GST-SIRT3 = assay: pull-down; GST fusion proteins bound to GST-agarose beads, incubated with Flag-tagged proteins purified from HEK293T in buffer BC200 at 4 °C overnight; washed with BC100; western blot; both purified

binding [1]: binds
Molecule: HA-tagged SIRT3 (NAD-dependent deacetylase Sirtuin 3) (enzyme)

binding (Flag-tagged SIRT3): binds
B1: HA-tagged HSD17B10 (protein, UniProt Q99714 1-261)
chain: T1 sequence

binding [4]: binds
B2: Endogenous HSD17B10 (HCT116 cells) (protein, UniProt Q99714 1-261)
chain: T1 sequence

The next lines start with the molecule.

Molecule: Flag-tagged SIRT3 (enzyme)
binding (GST-HSD17B10 (human)): binds

Molecule: Endogenous SIRT3 (HCT116 cells) (human (endogenous in HCT116)) (enzyme)
binding [2]: binds | binding [3]: binds

B3: Flag-tagged HSD17B10 (17-beta-hydroxysteroid dehydrogenase 10), wild type (protein, UniProt Q99714 1-261)
chain: T1 sequence
binding (GST-SIRT3): binds

— publication PMC7378191
